These results are taken from article PMC12691643.

The target in the assay is TgWIP^WT, wild-type Toxoplasma WAVE complex-interacting protein with a C-terminal HA tag (Toxoplasma gondii). In words: affinity purification with mass spectrometry; HA-tagged TgWIP variants pulled down by the HA tag from lysates of DC2.4 cells infected 4 h at MOI 7; host partners by mass spectrometry; values are negative fold changes in peptide counts of the mutant immunoprecipitations relative to TgWIP^WT.

Results are given in words; binding and its absence hold for the method and conditions named. Binding seen in cells or lysates may run through a third protein. Here binding means that the protein was enriched with, or labelled near, the bait; the list need not be complete.

B1: Arhgef6, endogenous in murine DC2.4 cells (protein, UniProt Q8K4I3 1-771)
chain: MNPEERLVTWLISLGVLESPKKTVCDPEEFLKSSLKNGVVLCKLINRLLPGSVEKYCLEPQTEADCIDNINDFLKGCATLQVEVFEPDDLYSGANFSKVLNTLLAVNKATEDQLSERPCGRSSSLSAATSSQTNPQVAVPSTAPEQHSEEKAEMTENGSHQLIVKARFNFKQTNEDELSVCKGDIIYVTRVEEGGWWEGTLNGRTGWFPSNYVREIKPSERPLSPKAIKGFDTAPLTKNYYTVVLQNILDTEKEYAKELQSLLVTYLRPLQSNNNLSTVEFTCLLGNFEEVCTFQQTLCQALEECSKFPENQHKVGGCLLNLMPHFKSMYLAYCANHPSAVNVLTQHSDDLERFMENQGASSPGILILTTSLSKPFMRLEKYVTLLQELERHMEDTHPDHQDILKAIIAFKTLMGQCQDLRKRKQLELQILSEPIQAWEGDDIKTLGNVIFMSQVVMQHGACEEKEERYFLLFSSVLIMLSASPRMSGFMYQGKIPIAGMVVNRLDEIEGSDCMFEITGSTVERIVVHCNNNQDFQEWMEQLNRLTKGPTSCGSLSKTSSSSCSTHSSFSSTGQPRGPLEPPQIIKPWSLSCLRPAPPLRPSAALGYKERMSYILKESSKSPKTMKKFLHKRKTERKASEEEYVIRKSTAALEEDAQILKVIEAYCTSASFQQGTRKDSVPQVLLPEEEKLIIEETRSNGQTIIEEKSLVDTVYALKDEVKELKQENKKMKQCLEEELKSRKDLEKLVRKLLKQTDECIRSESSSKTSILQ
As for B1, the binding entry is recorded as “binds”.
